Laboratory results taken from publication PMC6127294, “Jungle Express is a versatile repressor system for tight transcriptional control” (Nature Communications, 2018).
The comparison behind a weaker result is the experiment's own reference, which may not be listed here. Tags and fusion partners may be left off the protein sequences shown.

Molecular target: T1, EilR-Y03A Y3A (UniProt A0A346M331)
T1 sequence (looked up): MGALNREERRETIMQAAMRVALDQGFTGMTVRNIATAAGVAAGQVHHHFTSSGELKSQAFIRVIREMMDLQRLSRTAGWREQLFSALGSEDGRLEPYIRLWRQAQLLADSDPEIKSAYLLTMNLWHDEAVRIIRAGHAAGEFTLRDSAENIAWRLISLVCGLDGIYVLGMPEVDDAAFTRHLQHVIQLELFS
Assay: EMSA
Details: complex appears from 0.5:1 EilR:DNA, 10 mM MgCl2; Operator EMSA: 30 mM Tris pH 7.7, 100 mM NaCl, 25 mM arginine, 25 mM glutamine, 5 mM MgCl2, RT 1.5 h; recombinant protein; residues 1-192

“AAAAAGTTGGACACGTGTCCAACTTTCC (double strand) [eilOc 28-mer duplex]”: binds more weakly.
